Drawing on PMC8857135, this text covers binding for one molecule.

This test deals with T1, TRX1 (human (endogenous in SH-SY5Y)), P10599.
T1 chain: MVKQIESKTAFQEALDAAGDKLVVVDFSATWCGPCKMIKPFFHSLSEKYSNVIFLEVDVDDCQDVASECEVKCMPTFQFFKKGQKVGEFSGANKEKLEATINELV
The test can be described thus: co-IP; SH-SY5Y cell lysates (RIPA buffer), immunoprecipitated with anti-TRX1 antibody or control IgG on protein A/G-agarose, overnight 4 C, blot for TXNIP; cells treated with MPP+ (1 mM) or MPP+ and MG132 (1 uM) for 24 h, with LncZFAS1 overexpression or knockout. As to conditions: remark: other sources report otherwise.

Results are given in words; binding and its absence hold for the method and conditions named. In cells and extracts the contact can be indirect. Some binding calls cover weakened binding; strength is not graded here.

B1: TXNIP, Q9H3M7 1-391 (protein)
chain: MVMFKKIKSFEVVFNDPEKVYGSGEKVAGRVIVEVCEVTRVKAVRILACGVAKVLWMQGSQQCKQTSEYLRYEDTLLLEDQPTGENEMVIMRPGNKYEYKFGFELPQGPLGTSFKGKYGCVDYWVKAFLDRPSQPTQETKKNFEVVDLVDVNTPDLMAPVSAKKEKKVSCMFIPDGRVSVSARIDRKGFCEGDEISIHADFENTCSRIVVPKAAIVARHTYLANGQTKVLTQKLSSVRGNHIISGTCASWRGKSLRVQKIRPSILGCNILRVEYSLLIYVSVPGSKKVILDLPLVIGSRSGLSSRTSSMASRTSSEMSWVDLNIPDTPEAPPCYMDVIPEDHRLESPTTPLLDDMDGSQDSPIFMYAPEFKFMPPPTYTEVDPCILNNNVQ
As for B1, the binding result was “binds”.
